In assay [1] the target is human eIF2B(αβδγε)2 decamer, eIF2Bα Avi-tagged and biotinylated (human) (UniProt Q14232). In words: SPR; both purified.
Assay [2] deals with human eIF2Bβδγε tetramer, eIF2Bβ Avi-tagged and biotinylated (human) (UniProt P49770). In words: SPR; both purified.
Assay [3] addresses human eIF2Bβδγε tetramer, eIF2Bβ protein C tagged (human) (UniProt P49770). In words: pull-down; both purified.
In assay [4] the target is human eIF2B(αβδγε)2 decamer, eIF2Bα protein C tagged (human) (UniProt Q14232). In words: pull-down; both purified.

By UniProt entry, the sequences of proteins in these tests, tags left out. Where a name states a change or a piece, a line headed by the entry shows the natural chain unless it says otherwise.
UniProt Q14232: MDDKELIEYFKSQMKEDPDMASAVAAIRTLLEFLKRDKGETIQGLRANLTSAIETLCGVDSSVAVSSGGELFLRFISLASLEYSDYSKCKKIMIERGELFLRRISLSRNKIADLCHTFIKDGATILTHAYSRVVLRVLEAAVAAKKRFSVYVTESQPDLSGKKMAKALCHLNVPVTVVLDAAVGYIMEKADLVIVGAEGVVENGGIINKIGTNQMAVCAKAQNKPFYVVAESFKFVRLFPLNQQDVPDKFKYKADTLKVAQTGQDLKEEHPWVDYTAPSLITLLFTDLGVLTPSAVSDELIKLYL
UniProt P49770: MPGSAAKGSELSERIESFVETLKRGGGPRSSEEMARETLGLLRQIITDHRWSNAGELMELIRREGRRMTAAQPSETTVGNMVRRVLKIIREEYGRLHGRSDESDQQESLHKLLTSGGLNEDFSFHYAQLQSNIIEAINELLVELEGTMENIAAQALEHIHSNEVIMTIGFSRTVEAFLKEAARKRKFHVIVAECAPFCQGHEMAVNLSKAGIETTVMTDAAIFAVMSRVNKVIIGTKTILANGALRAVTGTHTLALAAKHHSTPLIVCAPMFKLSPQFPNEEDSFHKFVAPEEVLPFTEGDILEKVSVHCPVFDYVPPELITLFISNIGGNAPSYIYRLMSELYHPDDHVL
UniProt P12792: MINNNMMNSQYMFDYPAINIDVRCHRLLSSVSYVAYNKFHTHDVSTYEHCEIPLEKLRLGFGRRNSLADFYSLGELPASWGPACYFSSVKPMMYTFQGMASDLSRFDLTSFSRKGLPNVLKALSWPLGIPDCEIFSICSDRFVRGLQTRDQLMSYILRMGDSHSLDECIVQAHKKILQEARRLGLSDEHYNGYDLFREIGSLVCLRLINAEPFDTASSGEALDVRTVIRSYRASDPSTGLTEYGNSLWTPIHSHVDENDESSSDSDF

Binding data for one substance are collected here from publication PMC8651678.

No constants are given. Whether binding was seen depends on the method and setting. Some binding calls cover weakened binding; strength is not graded here.

Take “Sandfly Fever Sicilian virus (SFSV) NSs protein with a C-terminal 6xHIS tag (from UniProt P12792 1-267)”: the binding entry was “binds” in assay [1], “no binding” in assay [2], “no binding” in assay [3] and “binds” in assay [4].
